In article PMC3088709, “Phosphorylation of the Yeast γ-Tubulin Tub4 Regulates Microtubule Function” (PLoS ONE, 2011) one finds binding data, which are given here for five molecules.

Results are given in words; binding and its absence hold for the method and conditions named. In cells and extracts the contact can be indirect. Some entries that bind do so weakly or less than the wild type. Sequences can lack the tags named with a protein.

This test addresses T1, Tub4 with six copies of the hemagglutinin epitope HA (S. cerevisiae) (UniProt P53378).
T1 sequence: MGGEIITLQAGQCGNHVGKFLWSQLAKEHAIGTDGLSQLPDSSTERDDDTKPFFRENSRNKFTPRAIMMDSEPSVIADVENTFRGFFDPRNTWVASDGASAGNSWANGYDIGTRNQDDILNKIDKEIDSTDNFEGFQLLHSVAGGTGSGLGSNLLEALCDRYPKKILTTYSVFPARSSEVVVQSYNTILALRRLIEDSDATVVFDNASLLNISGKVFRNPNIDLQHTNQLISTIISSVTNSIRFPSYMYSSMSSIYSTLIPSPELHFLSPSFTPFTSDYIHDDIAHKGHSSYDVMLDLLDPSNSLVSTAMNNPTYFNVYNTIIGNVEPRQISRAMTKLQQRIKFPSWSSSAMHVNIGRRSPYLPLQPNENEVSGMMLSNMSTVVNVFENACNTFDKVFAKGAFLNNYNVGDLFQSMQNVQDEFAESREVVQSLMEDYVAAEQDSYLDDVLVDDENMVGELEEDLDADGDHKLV
The experiment in a line: co-IP; anti-HA immunoprecipitation of Tub4-6HA from lysates of SPC97-5FLAG TUB4-6HA cells carrying pRS305 with TUB4 alleles; Protein G Dynabeads, 4°C, 50 mM Tris-HCl pH 7.5, 150 mM NaCl, 0.1% Triton X-100; blots with anti-Tub4 and anti-FLAG.

B1: Tub4 (yeast gamma-tubulin), wild type, untagged (protein, UniProt P53378 1-473)
chain: MGGEIITLQAGQCGNHVGKFLWSQLAKEHAIGTDGLSQLPDSSTERDDDTKPFFRENSRNKFTPRAIMMDSEPSVIADVENTFRGFFDPRNTWVASDGASAGNSWANGYDIGTRNQDDILNKIDKEIDSTDNFEGFQLLHSVAGGTGSGLGSNLLEALCDRYPKKILTTYSVFPARSSEVVVQSYNTILALRRLIEDSDATVVFDNASLLNISGKVFRNPNIDLQHTNQLISTIISSVTNSIRFPSYMYSSMSSIYSTLIPSPELHFLSPSFTPFTSDYIHDDIAHKGHSSYDVMLDLLDPSNSLVSTAMNNPTYFNVYNTIIGNVEPRQISRAMTKLQQRIKFPSWSSSAMHVNIGRRSPYLPLQPNENEVSGMMLSNMSTVVNVFENACNTFDKVFAKGAFLNNYNVGDLFQSMQNVQDEFAESREVVQSLMEDYVAAEQDSYLDDVLVDDENMVGELEEDLDADGDHKLV
Turning to B1, the binding entry is given as “binds”.

B2: Tub4-S360D (protein, UniProt P53378 1-473)
chain: MGGEIITLQAGQCGNHVGKFLWSQLAKEHAIGTDGLSQLPDSSTERDDDTKPFFRENSRNKFTPRAIMMDSEPSVIADVENTFRGFFDPRNTWVASDGASAGNSWANGYDIGTRNQDDILNKIDKEIDSTDNFEGFQLLHSVAGGTGSGLGSNLLEALCDRYPKKILTTYSVFPARSSEVVVQSYNTILALRRLIEDSDATVVFDNASLLNISGKVFRNPNIDLQHTNQLISTIISSVTNSIRFPSYMYSSMSSIYSTLIPSPELHFLSPSFTPFTSDYIHDDIAHKGHSSYDVMLDLLDPSNSLVSTAMNNPTYFNVYNTIIGNVEPRQISRAMTKLQQRIKFPSWSSSAMHVNIGRRDPYLPLQPNENEVSGMMLSNMSTVVNVFENACNTFDKVFAKGAFLNNYNVGDLFQSMQNVQDEFAESREVVQSLMEDYVAAEQDSYLDDVLVDDENMVGELEEDLDADGDHKLV
Regarding B2, the binding entry is reported as “binds”.

B3: Tub4-S100E (protein, UniProt P53378 1-473)
chain: MGGEIITLQAGQCGNHVGKFLWSQLAKEHAIGTDGLSQLPDSSTERDDDTKPFFRENSRNKFTPRAIMMDSEPSVIADVENTFRGFFDPRNTWVASDGAEAGNSWANGYDIGTRNQDDILNKIDKEIDSTDNFEGFQLLHSVAGGTGSGLGSNLLEALCDRYPKKILTTYSVFPARSSEVVVQSYNTILALRRLIEDSDATVVFDNASLLNISGKVFRNPNIDLQHTNQLISTIISSVTNSIRFPSYMYSSMSSIYSTLIPSPELHFLSPSFTPFTSDYIHDDIAHKGHSSYDVMLDLLDPSNSLVSTAMNNPTYFNVYNTIIGNVEPRQISRAMTKLQQRIKFPSWSSSAMHVNIGRRSPYLPLQPNENEVSGMMLSNMSTVVNVFENACNTFDKVFAKGAFLNNYNVGDLFQSMQNVQDEFAESREVVQSLMEDYVAAEQDSYLDDVLVDDENMVGELEEDLDADGDHKLV
As for B3, the binding result is on record as “binds”.

B4: Tub4-S360A (protein, UniProt P53378 1-473)
chain: MGGEIITLQAGQCGNHVGKFLWSQLAKEHAIGTDGLSQLPDSSTERDDDTKPFFRENSRNKFTPRAIMMDSEPSVIADVENTFRGFFDPRNTWVASDGASAGNSWANGYDIGTRNQDDILNKIDKEIDSTDNFEGFQLLHSVAGGTGSGLGSNLLEALCDRYPKKILTTYSVFPARSSEVVVQSYNTILALRRLIEDSDATVVFDNASLLNISGKVFRNPNIDLQHTNQLISTIISSVTNSIRFPSYMYSSMSSIYSTLIPSPELHFLSPSFTPFTSDYIHDDIAHKGHSSYDVMLDLLDPSNSLVSTAMNNPTYFNVYNTIIGNVEPRQISRAMTKLQQRIKFPSWSSSAMHVNIGRRAPYLPLQPNENEVSGMMLSNMSTVVNVFENACNTFDKVFAKGAFLNNYNVGDLFQSMQNVQDEFAESREVVQSLMEDYVAAEQDSYLDDVLVDDENMVGELEEDLDADGDHKLV
Consider B4, for which the binding entry was “binds”.

B5: Tub4-S74E (natural protein, S. cerevisiae, UniProt P53378 1-473, looked up)
chain: MGGEIITLQAGQCGNHVGKFLWSQLAKEHAIGTDGLSQLPDSSTERDDDTKPFFRENSRNKFTPRAIMMDSEPEVIADVENTFRGFFDPRNTWVASDGASAGNSWANGYDIGTRNQDDILNKIDKEIDSTDNFEGFQLLHSVAGGTGSGLGSNLLEALCDRYPKKILTTYSVFPARSSEVVVQSYNTILALRRLIEDSDATVVFDNASLLNISGKVFRNPNIDLQHTNQLISTIISSVTNSIRFPSYMYSSMSSIYSTLIPSPELHFLSPSFTPFTSDYIHDDIAHKGHSSYDVMLDLLDPSNSLVSTAMNNPTYFNVYNTIIGNVEPRQISRAMTKLQQRIKFPSWSSSAMHVNIGRRSPYLPLQPNENEVSGMMLSNMSTVVNVFENACNTFDKVFAKGAFLNNYNVGDLFQSMQNVQDEFAESREVVQSLMEDYVAAEQDSYLDDVLVDDENMVGELEEDLDADGDHKLV
notes: Tub4, gamma-tubulin of budding yeast, phospho-mimicking mutant; source: S. cerevisiae, from integrated pRS305-tub4-S74E, in lysate
On to B5, for which the binding result is “binds”.
